Consider three molecules from US20210371478A1.

These are yes or no findings as the source states them, for the method shown. Some entries that bind do so weakly or less than the wild type. Where a sequence is shown, tags or fusion partners need not be part of it.

The target in assay [1] is T1, purified Reg Receptor tagged with FLAG epitope, expressed in 293T cells (human) (UniProt O43909).
T1 sequence: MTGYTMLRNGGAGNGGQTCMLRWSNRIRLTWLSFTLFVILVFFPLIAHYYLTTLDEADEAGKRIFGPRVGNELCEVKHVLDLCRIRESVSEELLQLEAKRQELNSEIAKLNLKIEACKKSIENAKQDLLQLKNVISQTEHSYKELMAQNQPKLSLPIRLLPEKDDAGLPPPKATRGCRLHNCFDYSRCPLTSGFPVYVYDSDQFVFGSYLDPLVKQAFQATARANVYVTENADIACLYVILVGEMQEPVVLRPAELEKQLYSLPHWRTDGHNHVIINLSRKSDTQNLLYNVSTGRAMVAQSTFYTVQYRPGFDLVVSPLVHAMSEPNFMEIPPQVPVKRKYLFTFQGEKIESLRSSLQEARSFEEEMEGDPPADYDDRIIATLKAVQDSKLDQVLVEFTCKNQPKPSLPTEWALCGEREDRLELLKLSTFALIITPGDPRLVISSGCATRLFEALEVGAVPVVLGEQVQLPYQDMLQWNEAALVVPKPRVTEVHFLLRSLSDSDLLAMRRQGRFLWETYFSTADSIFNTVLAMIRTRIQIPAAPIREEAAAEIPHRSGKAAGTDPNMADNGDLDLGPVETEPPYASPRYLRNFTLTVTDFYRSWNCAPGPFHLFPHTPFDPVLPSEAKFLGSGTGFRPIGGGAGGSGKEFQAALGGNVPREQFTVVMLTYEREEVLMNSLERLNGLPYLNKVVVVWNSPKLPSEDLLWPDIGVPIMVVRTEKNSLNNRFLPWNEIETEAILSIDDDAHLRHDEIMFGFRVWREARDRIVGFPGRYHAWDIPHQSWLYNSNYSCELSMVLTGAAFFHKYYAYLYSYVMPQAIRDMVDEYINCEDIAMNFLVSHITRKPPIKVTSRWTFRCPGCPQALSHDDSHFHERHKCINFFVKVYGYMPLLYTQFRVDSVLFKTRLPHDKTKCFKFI
As to the kind of experiment: plate assay on purified Reg receptor (FIG. 9).

In assay [2] the target is T1, purified Reg Receptor tagged with FLAG epitope, expressed in 293T cells (human). As to the kind of experiment: plate assay: purified Reg receptor coated, peptide added, strep-HRP detection, absorbance at 405 nm.

Turning to VWIGLHDP [8-amino acid Reg peptide (SEQ ID NO: 4)], the binding result in assay [1] and in assay [2] was “binds” throughout.

Turning to WIGLHDP [7-amino acid Reg peptide (SEQ ID NO: 3)], the binding entry in assay [1] and in assay [2] was “binds” in each case.

As to NVWIGLHDP [9-amino acid Reg peptide (SEQ ID NO: 5)], the binding entry in assay [1] and in assay [2] was “binds” each time.
